From publication PMC7861564
No constants are given. Whether binding was seen depends on the method and setting.

Assays:
[1] = biological target: T1, Agrobacterium tumefaciens single-stranded DNA binding protein (SSB) (Agrobacterium tumefaciens strain C58) (UniProt Q8UF87); assay: native gel or EMSA; both purified
T1 sequence: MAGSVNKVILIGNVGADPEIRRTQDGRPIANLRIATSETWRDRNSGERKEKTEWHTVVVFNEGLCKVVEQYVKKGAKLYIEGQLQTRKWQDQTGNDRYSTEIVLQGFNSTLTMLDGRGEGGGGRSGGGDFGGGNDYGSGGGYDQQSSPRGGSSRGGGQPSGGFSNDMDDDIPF

[2] = biological target: T1, Agrobacterium tumefaciens single-stranded DNA binding protein (SSB) (Agrobacterium tumefaciens strain C58); assay: cross-linking; glutaraldehyde 0.0001%, TelA with AtSSB or AtSSBΔC7, 25 mM HEPES pH 7.6, 0.1 mM EDTA, 100 mM or 200 mM NaCl, 30°C 15 min then 5 min with crosslinker; SDS-PAGE and anti-His western blot; both purified

B1: TelA, telomere resolvase from Agrobacterium tumefaciens strain C58 (enzyme, UniProt Q7CWV1 1-442)
chain: MLAAKRKTKTPVLVERIDQFVGQIKEAMKSDDASRNRKIRDLWDAEVRYHFDNGRTEKTLELYIMKYRNALKAEFGPKSTPLAICNMKKLRERLNTYIARGDYPKTGVATSIVEKIERAEFNTAGRKPTVLLRIADFIAAMNGMDAKQDMQALWDAEIAIMNGRAQTTIISYITKYRNAIREAFGDDHPMLKIATGDAAMYDEARRVKMEKIANKHGALITFENYRQVLKICEDCLKSSDPLMIGIGLIGMTGRRPYEVFTQAEFSPAPYGKGVSKWSILFNGQAKTKQGEGTKFGITYEIPVLTRSETVLAAYKRLRESGQGKLWHGMSIDDFSSETRLLLRDTVFNLFEDVWPKEELPKPYGLRHLYAEVAYHNFAPPHVTKNSYFAAILGHNNNDLETSLSYMTYTLPEDRDNALARLKRTNERTLQQMATIAPVSRKG
binding [1]: no binding | binding [2]: no binding
